Experimental data published in paper doi:10.1101/2024.03.03.583214.
Results are given in words; binding and its absence hold for the method and conditions named. Binding seen in cells or lysates may run through a third protein. Some binding calls cover weakened binding; strength is not graded here. For some assays here: Sequences can lack the tags named with a protein.

T1: Yhb1-Cherry (S. pombe) (UniProt Q9URY5)
T1 sequence: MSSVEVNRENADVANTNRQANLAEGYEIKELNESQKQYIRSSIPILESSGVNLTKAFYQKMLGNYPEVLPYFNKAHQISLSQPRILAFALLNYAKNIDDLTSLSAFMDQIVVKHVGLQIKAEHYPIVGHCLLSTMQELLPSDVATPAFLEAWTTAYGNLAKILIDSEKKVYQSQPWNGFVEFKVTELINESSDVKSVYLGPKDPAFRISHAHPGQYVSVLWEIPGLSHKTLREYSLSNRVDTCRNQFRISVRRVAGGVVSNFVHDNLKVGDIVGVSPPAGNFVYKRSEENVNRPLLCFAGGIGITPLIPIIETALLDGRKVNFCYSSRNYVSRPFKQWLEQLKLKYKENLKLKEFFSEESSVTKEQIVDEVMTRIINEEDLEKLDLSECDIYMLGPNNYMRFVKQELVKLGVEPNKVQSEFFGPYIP

T2: Yhb1-VN (S. pombe) (UniProt Q9URY5)
T2 sequence: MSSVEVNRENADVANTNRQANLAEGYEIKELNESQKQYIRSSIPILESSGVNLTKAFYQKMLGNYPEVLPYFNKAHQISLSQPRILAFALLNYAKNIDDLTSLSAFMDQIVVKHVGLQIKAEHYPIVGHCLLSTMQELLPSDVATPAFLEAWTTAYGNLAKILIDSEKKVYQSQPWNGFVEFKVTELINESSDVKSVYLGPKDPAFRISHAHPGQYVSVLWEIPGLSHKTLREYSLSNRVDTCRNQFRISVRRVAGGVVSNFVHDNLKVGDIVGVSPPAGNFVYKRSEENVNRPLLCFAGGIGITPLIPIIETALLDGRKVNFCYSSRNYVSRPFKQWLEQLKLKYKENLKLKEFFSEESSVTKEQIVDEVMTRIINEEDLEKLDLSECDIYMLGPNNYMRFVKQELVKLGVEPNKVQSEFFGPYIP


Experiments:
Yhb1-Cherry (S. pombe) = target: T1, Yhb1-Cherry (S. pombe); experiment: co-IP
Yhb1-VN (S. pombe) = target: T2, Yhb1-VN (S. pombe); experiment: split reporter

binding (Yhb1-Cherry (S. pombe)) | binding (Yhb1-VN (S. pombe)) | Binder
binds |  | Str3-GFP (protein, UniProt Q92341 1-630) MEAKETHSISDHEVELQDAKPEEKSENGNFVFEKAFSSDEEKGSGYNTNETYSKMDNSLQHRGVSKIEAVRDSIYQNKRGMYLAYAFGIAILACSWASAIQSSTTYSYQVYATASFNRTSMISTLEIATAIISSVCKPILGKFSDITSRPMTYTLVLLFYVIGFIVVASSSTISAYVIGSVFISIGSSGLDYLNTLVVGDLTSLKWRGFMTALLSTPYIATVWFTGFIVQGIIDSNWRWGYGMFAIIMPAVMTPAVIILMYLERQANKDENIKKIINYQTEEKNKNKQSKWQKLWKAVLEVDLFGLILLGVGWSILLLPFSLTSYAKNGWKNPSMIAMMVVGGVILIAYSGYEMFIAPYPSCPRRVMNRTFITAVIIDFFYYLAGYLQSMYFTTYTWILYDWSYRDWTYFNNTMTIALCVFGVFAGAMHRVFHRYKYLQIIGLVIKIVGYGILIRPNFAATGKVDLAWSLILIGMGGSFSVVGSQVSCQASVPHQDLAIASSLLPLYTNIGGAIGAAIASPIFSNKVPKYLREYLPSSINDTQVYNFYSDSSLIREYPVGTEIRDGAIKAYSRSMFFLLVPAVSLSFIPLAAAFWQSNFYLGNQQNAVEGDQDHKKKGDKETTQEEKIII
 | binds | Str3-VC (protein, UniProt Q92341 1-630) MEAKETHSISDHEVELQDAKPEEKSENGNFVFEKAFSSDEEKGSGYNTNETYSKMDNSLQHRGVSKIEAVRDSIYQNKRGMYLAYAFGIAILACSWASAIQSSTTYSYQVYATASFNRTSMISTLEIATAIISSVCKPILGKFSDITSRPMTYTLVLLFYVIGFIVVASSSTISAYVIGSVFISIGSSGLDYLNTLVVGDLTSLKWRGFMTALLSTPYIATVWFTGFIVQGIIDSNWRWGYGMFAIIMPAVMTPAVIILMYLERQANKDENIKKIINYQTEEKNKNKQSKWQKLWKAVLEVDLFGLILLGVGWSILLLPFSLTSYAKNGWKNPSMIAMMVVGGVILIAYSGYEMFIAPYPSCPRRVMNRTFITAVIIDFFYYLAGYLQSMYFTTYTWILYDWSYRDWTYFNNTMTIALCVFGVFAGAMHRVFHRYKYLQIIGLVIKIVGYGILIRPNFAATGKVDLAWSLILIGMGGSFSVVGSQVSCQASVPHQDLAIASSLLPLYTNIGGAIGAAIASPIFSNKVPKYLREYLPSSINDTQVYNFYSDSSLIREYPVGTEIRDGAIKAYSRSMFFLLVPAVSLSFIPLAAAFWQSNFYLGNQQNAVEGDQDHKKKGDKETTQEEKIII
